From PubChem BioAssay AID590 (National Center for Advancing Translational Sciences (NCATS), 2007)
In all, about 59,000 compounds went through this assay and about 6,500 (11%) were called active. The inconclusive results got no clear call from the source; some entries with a clear call stand among them for comparison. Rule as the data show it: active = max dye-equivalent concentration above about 10 nM; inconclusive = mostly about 1.1 nM to 9.6 nM; inactive = weaker than that.

test: qHTS Assay for Spectroscopic Profiling in A350 Spectral Region; conditions: Compound autofluorescence, 340/450 nm, Alexa 350 dye-equivalents; stronger effect = higher value

Compound | max dye-equivalent concentration
Cc1nn(CC(=O)Nc2ccc3c(c2)nc(CN2CCCCC2)n3C)c(=O)c2ccccc12 | inconclusive: 2.6 nM
CCOC(=O)N1CCC(Nc2ncnc3c2cnn3-c2ccccc2)CC1 | inactive
O=C(NCc1ccccc1Cl)c1cnn2cccnc12 | active: 19 nM
CCOc1ccc(-n2cnnn2)cc1S(=O)(=O)Nc1c(C)cccc1C | inactive
COC(=O)CSc1nnc(SCc2ccc(OC)cc2)s1 | inconclusive: 1.2 nM
CC1=C(C(=O)Nc2ccccc2)C(c2ccco2)n2ncnc2N1 (centres undefined) | inconclusive: 1.2 nM
Cc1ccc(OCC(=O)Nc2ccc(-c3nnc(-c4ccco4)o3)cc2)cc1 | inactive
COCCn1c(SCC(=O)OC(C)C)nnc1-c1ccccc1 | inactive
CCn1c2ccccc2c2nnc(SCC(=O)Nc3cc(C)on3)nc21 | inconclusive: 7.1 nM
CC1(C)CNC(=O)C=C(c2ccccc2)C1 | inconclusive: 3.2 nM
CCCCOC(=O)CSc1nc2c(cc1C#N)C(=O)CC(C)(C)C2 | inactive
O=C(/C=C/Nc1ccc(F)c(Cl)c1)c1ccco1 | inconclusive: 8.3 nM
COCCn1nnnc1C1(N(Cc2cc3cc(C)ccc3[nH]c2=O)CC2CCCO2)CCN(C)CC1 (centres undefined) | inconclusive: 3.2 nM
O=C(O)/C(Cc1cn[nH]n1)=N\O | inactive
N#Cc1nc(-c2ccco2)oc1NCCN1CCOCC1 | inconclusive: 2 nM
CCC(CC)n1[nH]c(=O)c2c(C)cc(C)nc21 | inconclusive: 2.7 nM
Fc1ccc(Nc2nc(-c3cccnc3)nc3ccccc23)cc1 | inconclusive: 3.3 nM
COc1ccc(CNC(=O)C(OC(C)=O)c2ccccn2)cc1 (centres undefined) | inconclusive: 1.6 nM
O=C(Nc1nn[nH]n1)c1nc(-c2ccccc2)cc(=O)[nH]1 | inactive
O=c1c2[nH]c3ccccc3c2ncn1Cc1ccncc1 | inconclusive: 1.2 nM
CC1(C)CC(=O)C=C(Nc2ccccc2O)C1 | inconclusive: 2.7 nM
Cn1cccc1C(=O)N1CCC2(CCCN(Cc3ccccc3)C2)CC1 | inactive
Cc1ccc(-c2cc(C(F)(F)F)c(C#N)c(SCCC#N)n2)o1 | active: 140 nM
COCCn1c(SCC(=O)Nc2cccc(OC)c2)nnc1-c1ccc(Cl)cc1 | inactive

Compound | max dye-equivalent concentration
COc1cccc(C(=O)Cn2c(=N)n(C)c3ccccc32)c1 | inactive
Cc1ccccc1-n1c(SCC(=O)c2cc(C)n(C)c2C)nnc1-c1ccncc1 | inactive
O=C(CSC1=NCCS1)N1CCc2ccccc21 | inconclusive: 1.5 nM
O=C1c2ccccc2NC(c2ccc3c(c2)OCCO3)N1c1ccc2c(c1)OCCO2 (centres undefined) | active: 18 nM
Cc1nc(N2CCN(C(=O)c3ccco3)CC2)c2oc3ccccc3c2n1 | inconclusive: 1.1 nM
O=S(=O)(O)c1cc(S(=O)(=O)O)c2c(N=Nc3cccc4ccccc34)c(O)ccc2c1 | inconclusive: 3.2 nM
Cc1cc(NCCCN2CCOCC2)n2c(nc3ccccc32)c1C#N | active: 9800 nM
Cc1cc(C)c2c(n1)nn1c(NCCCN3CCOCC3)cc(C)nc21 | active: 2400 nM
Cn1c(CCNC(=O)c2ccccc2)nc2cc(NC(=O)c3ccco3)ccc21 | inconclusive: 8.1 nM
N#Cc1c(N)n[nH]c1-c1cc2c([nH]1)CCCC2 | inactive
COC(=O)Nc1c(-c2ccccc2)nc2ccccn12 | inconclusive: 3.4 nM
CCCCC(=O)NCCc1cc2ccc(OC)cc2[nH]c1=O | inconclusive: 1.4 nM
OC(COc1ccc2ccccc2c1)Cn1ccnc1 (centres undefined) | inconclusive: 3 nM
CCNc1ncc2nc(-c3cn(C)c4ccccc34)c(=O)n(C)c2n1 | inconclusive: 6.4 nM
CCCn1c(=NC(C)=O)c(C#N)cc2c(=O)n3cccc(C)c3nc21 | active: 4000 nM
O=c1c2c3nc4ccccc4nc3n(CCN3CCOCC3)c2ncn1CCN1CCOCC1 | active: 89 nM
COCC(=O)N1CCC2(CCCN(Cc3ccccc3OC)C2)CC1 | inactive
O=C(Nc1ccc2c(c1)OCO2)c1ccccc1SCC(=O)N1CCCC1 | inconclusive: 1.7 nM
O=C(OCc1cc(-c2ccccc2)no1)c1ccc2ccccc2n1 | active: 170 nM
Cc1ccc2[nH]c(=O)c(CN(CCCN3CCOCC3)C(=O)NC3CCCCC3)cc2c1 | inconclusive: 1.9 nM
CCOc1ccccc1C1C(C#N)=C(N)SC(N)=C1C#N | inconclusive: 1.3 nM
Cc1ccc(O)c(C(=O)c2cnn(C(=O)Cc3csc(C)n3)c2)c1 | active: 54 nM
CCn1c(SCC(=O)Nc2cc(C)on2)nnc1-c1cccs1 | inactive
COc1ccc(C2C3=C(N=C4SCC(=O)N42)c2ccccc2CC3)cc1 (centres undefined) | inconclusive: 3.5 nM

Compound | max dye-equivalent concentration
COC(=O)c1[nH]c2ccc(C)cc2c1NC(=O)CN1CCC(C)CC1 | inconclusive: 1.5 nM
Cc1nnc2sc(-c3csc4c3CCCC4)nn12 | inactive
CC12CCC(c3c(C(=O)Nc4nccs4)nn(-c4ccccc4)c31)C2(C)C (centres undefined) | inconclusive: 1.5 nM
Cc1ccc2[nH]c3c(NCCCN4CCCC4=O)ncnc3c2c1 | inconclusive: 4.5 nM
Cc1cc(C)c2nc(N3CCCC3)c(C#N)cc2c1 | active: 130 nM
Cc1ccc(OCCn2c(=O)cnc3ccccc32)cc1 | active: 78 nM
CCC1Oc2ccc(C)cc2N(CC(=O)NCCCN2CCCCC2CC)C1=O (centres undefined) | inactive
Cc1cccn2c(=O)c(C=Nc3ccc(Cl)cc3)c(NCCO)nc12 | active: 390 nM
O=C(O)[C@H]1CC=CC[C@@H]1C(=O)Nc1cccc(O)c1 | inconclusive: 2.3 nM
Cc1cc(C)n(C(=O)C23CC4CC(CC(C4)C2)C3)n1 | inactive
O=C(c1csnn1)N1CCC2(CC1)CCN(c1ncccn1)CC2 | inactive
CCOc1ccc(C2C(C(=O)c3ccc(C)o3)=C(O)C(=O)N2CCCN(CC)CC)cc1 (centres undefined) | inconclusive: 7.4 nM
CC(N)=NCc1cccc(CN)c1 | inactive
Cc1nc2cnc(OCc3ccccc3)nc2n(CCC#N)c1=O | inconclusive: 5 nM
COC(=O)CC1=C(C(=O)OC)C(c2ccncc2)C(C#N)=C(N)O1 (centres undefined) | inconclusive: 1.3 nM
O=C(Nc1ccc(Cl)cc1C(=O)NCCN1CCOCC1)c1ccco1 | inconclusive: 5.6 nM
Cc1cccc(CNc2cc(-c3ccccc3C)ncn2)c1 | inactive
COc1ccc(NS(=O)(=O)c2ccc(OCC(=O)N3CCCC3)cc2)cc1 | inconclusive: 1.7 nM
CC1CN(C(=O)CN2C(=O)NC(C)(c3ccccc3)C2=O)CC(C)O1 (centres undefined) | inactive
O=C(c1cc2ccccc2o1)c1cccs1 | inconclusive: 3.7 nM
CCOc1cc2[nH]c(=S)n(Cc3ccc(C)o3)c(=O)c2cc1OCC | inactive
C/C(N)=C(/C#N)C(=O)CSc1nc2ccc(C)cc2[nH]1 | inconclusive: 1.4 nM
O=C(O)c1ccc2c(c1)NC(=O)C(N1CCCC1)S2 (centres undefined) | inconclusive: 2.1 nM
CCc1ccc2oc(=O)cc(CN(C)Cc3ccccc3)c2c1 | inconclusive: 1.5 nM

Compound | max dye-equivalent concentration
CCOC(=O)Cc1csc(NC(=O)c2cnc3scc(C)n3c2=O)n1 | active: 15 nM
O=C(Nc1nccs1)c1ccc(NC(=O)c2ccco2)cc1 | inconclusive: 6.7 nM
COc1cc2cc(C(c3nnnn3C3CCCC3)N3CCc4ccccc43)c(=O)[nH]c2cc1OC (centres undefined) | active: 120 nM
CCCN(CC(=O)c1cc(C)n(C)c1C)S(=O)(=O)c1cccc(C(F)(F)F)c1 | inconclusive: 1.9 nM
Cc1ccc(-c2cc(C(=O)O)n[nH]2)o1 | active: 16 nM
Cn1c(=O)[nH]c(=O)c2c1nc(CN1CCN(c3ccc(F)cc3)CC1)n2CCCc1ccccc1 | inactive
O=S(=O)(c1cccc(C(F)(F)F)c1)N1c2ccccc2-n2cccc2[C@H]1c1cccnc1 | active: 13 nM
COCC(=O)N1CCC2(CCCN(Cc3nccs3)C2)CC1 | inactive
CCOC(=O)c1sc(C)c2c(=O)n(CCCN3CCOCC3)cnc12 | inconclusive: 1.8 nM
O=C(c1ccco1)N1CCN(c2ncnc3c2[nH]c2ccc(Br)cc23)CC1 | inconclusive: 2.1 nM
O=c1cc(CSc2ccccn2)c2ccccc2[nH]1 | inactive
COc1cccc2c1C(=O)c1c(O)c3c(c(O)c1C2=O)C[C@@](O)(C(=O)CO)C[C@H]3O[C@H]1C[C@@H](N)[C@H](O)[C@@H](C)O1.[W] | inactive
CCC(C)NC(=O)CNC(=O)Cn1c(C)cc2ccccc2c1=O (centres undefined) | inconclusive: 1.2 nM
OCCN1CCN(C(=S)c2ccc(Cl)c(Cl)c2)CC1 | active: 780 nM
CCc1nnc(NS(=O)(=O)c2ccc(N3C(=O)C4CC=C(Cl)CC4C3=O)cc2)s1 (centres undefined) | inconclusive: 1.4 nM
CCOC(=O)CSc1nc(-c2ccncc2)ccc1C#N | inconclusive: 4.2 nM
CCOC1(C(F)(F)F)NC(=O)N(Cc2ccc(OC)cc2)C1=O (centres undefined) | inactive
C[C@@H](CN1CCC(Cc2ccccc2)CC1)[C@H](O)c1ccc(O)cc1 | inactive
Cc1ccc2cc3cc(C(=O)NCCCN4CCCCCC4)oc3nc2c1 | active: 63 nM
CCOc1ccc(C(CC(=O)O)NC(=O)COc2ccccc2)cc1 (centres undefined) | inconclusive: 1.3 nM
CC1(C)Cc2c(c(-c3ccccc3)nc(N3CCCC3)c2C(N)=O)CO1 | inconclusive: 9.1 nM
Cc1nc(=O)c(-c2ccccc2)c(C)n1-c1ccccc1C(=O)O | inactive

Part of the list above in order of molar mass, largest number first:
Compound | max dye-equivalent concentration
Cn1c(=O)[nH]c(=O)c2c1nc(CN1CCN(c3ccc(F)cc3)CC1)n2CCCc1ccccc1 | inactive
COc1cc2cc(C(c3nnnn3C3CCCC3)N3CCc4ccccc43)c(=O)[nH]c2cc1OC (centres undefined) | active: 120 nM
O=S(=O)(c1cccc(C(F)(F)F)c1)N1c2ccccc2-n2cccc2[C@H]1c1cccnc1 | active: 13 nM
CCc1nnc(NS(=O)(=O)c2ccc(N3C(=O)C4CC=C(Cl)CC4C3=O)cc2)s1 (centres undefined) | inconclusive: 1.4 nM
O=C(c1ccco1)N1CCN(c2ncnc3c2[nH]c2ccc(Br)cc23)CC1 | inconclusive: 2.1 nM
CCCN(CC(=O)c1cc(C)n(C)c1C)S(=O)(=O)c1cccc(C(F)(F)F)c1 | inconclusive: 1.9 nM
COc1ccc(NS(=O)(=O)c2ccc(OCC(=O)N3CCCC3)cc2)cc1 | inconclusive: 1.7 nM
CCOC(=O)Cc1csc(NC(=O)c2cnc3scc(C)n3c2=O)n1 | active: 15 nM
Cc1ccc2cc3cc(C(=O)NCCCN4CCCCCC4)oc3nc2c1 | active: 63 nM
CCOc1cc2[nH]c(=S)n(Cc3ccc(C)o3)c(=O)c2cc1OCC | inactive
CC1(C)Cc2c(c(-c3ccccc3)nc(N3CCCC3)c2C(N)=O)CO1 | inconclusive: 9.1 nM
CC1CN(C(=O)CN2C(=O)NC(C)(c3ccccc3)C2=O)CC(C)O1 (centres undefined) | inactive
CCOc1ccc(C(CC(=O)O)NC(=O)COc2ccccc2)cc1 (centres undefined) | inconclusive: 1.3 nM
C[C@@H](CN1CCC(Cc2ccccc2)CC1)[C@H](O)c1ccc(O)cc1 | inactive
CCOC1(C(F)(F)F)NC(=O)N(Cc2ccc(OC)cc2)C1=O (centres undefined) | inactive
CCC(C)NC(=O)CNC(=O)Cn1c(C)cc2ccccc2c1=O (centres undefined) | inconclusive: 1.2 nM
COCC(=O)N1CCC2(CCCN(Cc3nccs3)C2)CC1 | inactive
Cc1nc(=O)c(-c2ccccc2)c(C)n1-c1ccccc1C(=O)O | inactive
OCCN1CCN(C(=S)c2ccc(Cl)c(Cl)c2)CC1 | active: 780 nM
O=C(Nc1nccs1)c1ccc(NC(=O)c2ccco2)cc1 | inconclusive: 6.7 nM
CCOC(=O)CSc1nc(-c2ccncc2)ccc1C#N | inconclusive: 4.2 nM
C/C(N)=C(/C#N)C(=O)CSc1nc2ccc(C)cc2[nH]1 | inconclusive: 1.4 nM
O=C(O)c1ccc2c(c1)NC(=O)C(N1CCCC1)S2 (centres undefined) | inconclusive: 2.1 nM
O=c1cc(CSc2ccccn2)c2ccccc2[nH]1 | inactive
O=C(c1cc2ccccc2o1)c1cccs1 | inconclusive: 3.7 nM
Cc1ccc(-c2cc(C(=O)O)n[nH]2)o1 | active: 16 nM
